Measurements as given in patent publication US11466054B2, “Inhibitors of metastasis” (BIOMARCK PHARMACEUTICALS LTD., priority 2013, dated 2022).
Some results were stated once for a whole list of compounds, not compound by compound. Where no end group is shown, it is not given here.

Tested on: A549 cells
Test: Anti-metastatic efficacy in SCID mice given A549 cells via the tail vein
Type: in vivo
Details: starting on day −1 or Day +3 relative to A549 cell injection, FIG. 15
Protocol: Female NOD.CB17-Prkdc^scid/NCrHsd, Mus musculus mice (Harlan, The Netherlands), housed in individually ventilated cages, were randomized into six groups of eight mice each. A549 cells (2.5×10^6) were injected into the mice via the tail vein. The control group received aerosolized vehicle PBS; while the groups 2 and 3 received the aerosolized test compound BIO-11006 either from −1 day before the cancer cells injection (group 2) or from +3 days after the cancer cell injection (group 3) on every other day for 7 weeks via nebulizer (Aeroneb Lab). Groups 4 and 5 received the aerosolized test compound MANS peptide either from −1 day before the cancer cell line injection (group 4) or from +3 days after the cell line injection (group 5) on every other day for 7 weeks via a nebulizer (Aeroneb Lab). For aerosol delivery, solution of each test compound (100 μM) was prepared in PBS, pH 7.0. For each treatment, 5 mL of test compound solution was aerosolized over 30 minutes into a chamber containing four mice at a time. The mice were monitored for body weight every other day for 7 weeks.
One group of mice (n=7) served as normal control. These were untreated naïve mice used to monitor the health status of mice during the study period. All animals from all groups were sacrificed on Day 53. […]

Substance | inhibition of tumor metastasis
Ac-GAQFSKTAAK [BIO-11006] | 70-80%
N-myristoyl-GAQFSKTAAKGEAAAERPGEAAVA (N-myristoyl; listed as Homo sapiens) [MANS peptide] | 70-80%
